Patent publication EP1531159B1, “Peptide useful for diagnosis and therapy of tumors” (Deutsches Krebsforschungszentrum Stiftung des öffentlichen …, priority 2003, dated 2005)
Not every detail of the peptide structures is certain; ends, links or a residue may be inferred. Where a SMILES comes first, the peptide text is derived from it. The star is where a group is joined. FITC = O=C1OC2(c3ccc(O)cc3Oc3cc(O)ccc32)c2ccc(NC(=S)*)cc21

System: DU-145 prostate tumor cells
Test: Confocal microscopy with FITC-labeled DU-Sigi1
Assay type: cell-based, human
Conditions: 10^-5M, 10 min at 37°C

`C[C@H](NC(=O)[C@H](CCCNC(=N)N)NC(=O)[C@H](CC(N)=O)NC(=O)[C@@H]1CCCN1C(=O)[C@H](CCCNC(=N)N)NC(=O)[C@H](Cc1ccccc1)NC(=S)Nc1ccc2c(c1)C(=O)OC21c2ccc(O)cc2Oc2cc(O)ccc21)C(=O)N[C@@H](CCC(N)=O)C(=O)N[C@@H](CC(=O)O)C(=O)N[C@@H](Cc1ccc(O)cc1)C(=O)N[C@@H](CC(N)=O)C(=O)N[C@H](C(=O)N[C@@H](CC(N)=O)C(=O)O)[C@@H](C)O` [FITC-DU-Sigi1] ({FITC}-FRPNRAQDYNTN-OH) was tested, and the “cellular localisation of binding” value was “binds specifically to the membrane of the cells”.
